Screen size: about 400,000 compounds; about 13,000 (3.2%) were called active. The inconclusive results got no clear call from the source; some entries with a clear call stand among them for comparison. Calls come from the whole dose curve; as a rule, active = well fitted cell-killing curve with a large enough effect; inconclusive = small, poorly fitted or top-dose-only effect, or effect the other way; inactive = flat fitted curve, though single readings scatter. A potency beside an inconclusive call is a rough fit, not a confirmed value.
Assay: qHTS assay for MDR1-selective chemotherapeutics: Primary screen using the drug-selected MDR subline cells KB-V1; note: nearly all actives have a fitted effect of over 60% in size
Details: KB-V1 MDR cells viability, CellTiter-Glo, 72 h; activity change, negative = cytotoxicity: at 46.1 µM (top of the series)
How it was run: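 Compound-treated KB-V1 multidrug-resistant cells, 72 h, 37 degrees C; viability by CellTiter-Glo. Fitted qHTS curves give the values.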
% is set by controls: 0 for no effect and ±100 for the full control effect; potency is the fitted concentration of half-maximal effect.

Compound | Potency | activity change, negative = cytotoxicity
COC(=O)c1ccc2c(c1)N(CC(=O)Nc1ccc(C)cc1Cl)C(=O)c1ccccc1S2 | inconclusive: 3.66 µM [cytotoxic, full curve] | –
C=CCNc1nc(Nc2ccc(OC)c(OC)c2)c2sc(-c3ccccc3)cc2n1 | inconclusive: 2.31 µM [cytotoxic, partial curve, poor fit] | –
COc1ccc(C)cc1NC(=O)CN(C)S(=O)(=O)c1ccc2[nH]c(=O)oc2c1 | inconclusive: 14.6 µM [rising, single point] | –
Cc1ccc(NC(=O)c2cn(CCC#N)nc2-c2cccs2)c([N+](=O)[O-])c1 | inconclusive: 9.2 µM [cytotoxic, partial curve] | –
CN(C(=O)CSCC(=O)Nc1ccc(Cl)cc1)C1CCCCC1 | – | inactive: -8.28%
CCc1nccn1S(=O)(=O)c1cc(Br)ccc1Br | inconclusive: 11.6 µM [rising, partial curve, poor fit] | –
Cc1ccc(C(C)C)c(OCCCN2CC(C)OC(C)C2)c1 (stereo not given) | – | inactive: -10.9%
COc1cccc2c1C(=O)c1c(O)c3c(c(O)c1C2=O)CC(O)(C(C)=O)CC3OC1CC(N(C)C)C(O)C(C)O1 (stereo not given) | active: 7.31 µM | –
Cc1ccc(N/C=C/C(=O)c2sc(-c3ccccc3)nc2C)cc1 | inconclusive: 18.4 µM [cytotoxic, single point] | –
Cc1cc(Nc2ccccc2)c2c([N+](=O)[O-])cc(C)c(C)c2n1 | – | inactive: -14.8%
COc1ccccc1C(=O)N1CCN(C(=O)c2oc3c(C)c(C)ccc3c2C)CC1 | – | inactive: -23.6%
S=C(NCc1ccc(Cl)cc1)Nc1ccncc1 | – | inactive: -20.9%
Cc1cccc(NC(=O)c2ccc(Cn3nc(N4CCN(c5ccccc5)CC4)ccc3=O)o2)c1C | inconclusive: 29.1 µM [cytotoxic, single point] | –
CC(=O)N1c2ccccc2N=C(c2ccc(C(F)(F)F)cc2)C1C(=O)NC1CCCC1 (stereo not given) | inconclusive: 23.1 µM [cytotoxic, partial curve, poor fit] | –
N#Cc1cc(-c2ccccc2)nc(NN)n1 | inconclusive: 29.1 µM [rising, single point] | –
O=C1NC[C@@H](Cc2cccc3ccccc23)N(CCc2cc(C(F)(F)F)cc(C(F)(F)F)c2)C1=O | – | inactive: -1.34%
Oc1ccccc1N1CCN(c2ccc3ccccc3n2)CC1 | inconclusive: 10.3 µM [cytotoxic, partial curve] | –
COc1ccc(Cl)cc1NC(=O)CN(C)C(=O)c1cn(-c2ccccc2)nc1-c1cccnc1 | inconclusive: 8.2 µM [cytotoxic, partial curve, poor fit] | –
Cc1ccc(-c2nn(-c3ccccc3)cc2CSC(=N)N)cc1 | inconclusive: 23.1 µM [cytotoxic, single point] | –
CC(C)c1ccc(C2NC(=O)NC3=C2CCc2ccccc23)cc1 (stereo not given) | active: 18.4 µM | –
O=C(NCCc1ccc(Cl)cc1)c1cc2c(s1)-c1ccccc1OC2 | inconclusive: 23.1 µM [cytotoxic, partial curve, poor fit] | –
C=CCSC1=C(C#N)C(c2ccc(OCC)cc2)CC(=O)N1 (stereo not given) | inconclusive: 23.1 µM [rising, single point] | –
COc1cc(OC)c2c(C)c(CC(=O)NCc3ccccc3OC)c(=O)oc2c1 | inconclusive: 29.1 µM [cytotoxic, single point] | –
CCOc1ccc(NC(=O)N2CCN(C(=O)c3nsc4ccccc34)CC2)cc1 | – | inactive: -6.71%

Compound | Potency | activity change, negative = cytotoxicity
CCCCOC(=O)c1cc(-c2ccc(/C=N/n3cnnc3)o2)ccc1Cl | active: 18.4 µM | –
COc1ccccc1C1(CC(=O)N2CCCCC2)CCOC(C(C)C)C1 (stereo not given) | inconclusive: 9.2 µM [cytotoxic, partial curve] | –
COc1ccc(-c2cc(C(F)(F)F)nc(SCC(=O)N(C)Cc3ccccc3)n2)cc1 | – | inactive: -21.1%
CC1(C(=O)NCc2ccccc2)Cc2c(-c3ccc4c(c3)OCO4)ccnc2O1 (stereo not given) | active: 2.06 µM | –
Cc1ccc(S(=O)(=O)N2C[C@H]3C(=O)C[C@@H](c4ccc(Cl)cc4)N(S(=O)(=O)c4ccc(C)cc4)[C@H]3C[C@H]2c2ccccc2)cc1 | inconclusive: 0.291 µM [rising, full curve] | –
N#CC1=C(N)N2C(=C(C#N)C1c1ccc(Br)cc1)Nc1ccccc12 (stereo not given) | – | inactive: 3.36%
CC1(C(=O)NCc2ccccc2)CN(S(C)(=O)=O)CC(=O)N1CCc1ccc(O)cc1 (stereo not given) | – | inactive: -5.23%
NS(=O)(=O)c1ccc(CNC(=S)NC2CCCCC2)cc1 | inconclusive: 1.16 µM [cytotoxic, full curve, poor fit] | –
O=S(=O)(Nc1cccc(-c2ccc(N3CCOCC3)nn2)c1)c1ccc(F)c(C(F)(F)F)c1 | inconclusive: 4.11 µM [cytotoxic, full curve, poor fit] | –
COc1ccc(CCNC(=O)c2ccc3c(c2)CCN3S(=O)(=O)c2ccc(C)cc2)cc1OC | – | inactive: -28.3%
OC(CN1CCN(c2ccccc2Cl)CC1)c1ccccc1 (stereo not given) | – | inactive: 1.06%
CCOC(=O)N1CCN(C(C(=O)NC2CCCC2)c2cccc(OC)c2OC)CC1 (stereo not given) | inconclusive: 20.6 µM [cytotoxic, partial curve] | –
CCCOc1ccc(S(=O)(=O)Nc2ccccn2)c2ccccc12 | inconclusive: 29.1 µM [rising, single point] | –
Cc1cc(OCC(=O)NC2CC(C)(C)NC(C)(C)C2)c(C)cc1Br | inconclusive: 9.2 µM [cytotoxic, partial curve] | –
COc1cccc(C2C3=C(CC(C)(C)CC3=O)OC(N)=C2[N+](=O)[O-])c1 (stereo not given) | – | inactive: 16.7%
C=CCC[C@@H](Cc1ccc(F)cc1)C(=O)OC[C@@H](NC(=O)[C@H](CC=C)CC(=O)N(CCO)Cc1ccccc1)c1ccccc1 | inconclusive: 29.1 µM [cytotoxic, single point] | –
COc1ccc(-c2nn(C)c(=O)c3ccccc23)cc1NC(=O)Cn1nc(C)c2ccccc2c1=O | active: 20.6 µM | –
NC1=CC(=O)C(=O)c2cccnc21 | inconclusive: 29.1 µM [cytotoxic, single point] | –
O=C(CN1CCN(Cc2ccccc2)CC1)N1CCCc2c1c(=O)oc1ccc(O)cc21 | active: 14.6 µM | –
Cc1nc(-c2ccc(NC(=O)/C=C\C(=O)O)cc2)cs1 | – | inactive: 27%
Cc1ccc2cc(C)c(SCC(=O)Nc3cc(C)on3)nc2c1 | – | inactive: -23.2%
COc1cc(OC)cc(-c2c(-c3ccc(C(C)=O)cc3)c3cc(-c4cccc5[nH]ccc45)ccc3n2C)c1 | inconclusive: 25.9 µM [rising, single point] | –
CC(C)OCCCn1c(SCc2ccccc2Cl)nc2c(sc3ccccc32)c1=O | – | inactive: 10.7%
CCN(CC(=O)Nc1ccc(OC)cc1)C(=O)c1ccc2[nH]c3c(c2c1)CC(C)CC3 (stereo not given) | inconclusive: 29.1 µM [cytotoxic, single point] | –

Gathered by group: the entries above containing a cyano group.
Compound | Potency | activity change, negative = cytotoxicity
Cc1ccc(NC(=O)c2cn(CCC#N)nc2-c2cccs2)c([N+](=O)[O-])c1 | inconclusive: 9.2 µM [cytotoxic, partial curve] | –
N#Cc1cc(-c2ccccc2)nc(NN)n1 | inconclusive: 29.1 µM [rising, single point] | –
C=CCSC1=C(C#N)C(c2ccc(OCC)cc2)CC(=O)N1 (stereo not given) | inconclusive: 23.1 µM [rising, single point] | –
N#CC1=C(N)N2C(=C(C#N)C1c1ccc(Br)cc1)Nc1ccccc12 (stereo not given) | – | inactive: 3.36%

Following part:

Compound | Potency | activity change, negative = cytotoxicity
COc1ccc(NC(=O)C2Cc3c(-c4ccc(NC(C)=O)cc4)ccnc3O2)cn1 (stereo not given) | inconclusive: 18.4 µM [cytotoxic, single point] | –
Cc1ccccc1C(=O)Nc1c(C(=O)N2CCCC2)cnn1-c1ccccc1 | inconclusive: 2.31 µM [cytotoxic, full curve] | –
COc1cc(-c2coc3c(C(=O)NCc4ccc(C(F)(F)F)cc4)cccc23)ccc1O | inconclusive: 29.1 µM [cytotoxic, single point] | –
CCOc1ccc(NC(=O)C2CCC(CNS(=O)(=O)c3ccc4c(c3)CCCC(=O)N4)CC2)cc1 (stereo not given) | inconclusive: 29.1 µM [rising, single point] | –
CCCCNC(=O)C1(C)CCCCN1C(=O)c1csnn1 (stereo not given) | – | inactive: 0.559%
CCOc1nc(C)ccc1-c1noc(-c2ccncc2)n1 | – | inactive: 2.8%
COc1ccc(/C=N/Nc2nc(-c3ccc(C)cc3)c(NC(C)=O)s2)cc1OC | – | inactive: 0%
COc1ccc(N2CCN(Cc3cc4c(cc3Br)OCCO4)CC2)cc1 | inconclusive: 7.31 µM [cytotoxic, partial curve] | –
CC(C)OC(=O)C1CC(C)(O)C(=O)C(C(=O)OC(C)C)C1c1ccc([N+](=O)[O-])cc1 (stereo not given) | inconclusive: 13 µM [cytotoxic, partial curve, poor fit] | –
O=C(c1cc(C2CC2)nn1-c1ccccc1)N1CCN(c2ccc(O)cc2)CC1 | inconclusive: 14.6 µM [cytotoxic, partial curve, poor fit] | –
CCc1c(C)nc2ncnn2c1NCc1cccs1 | inconclusive: 20.6 µM [cytotoxic, single point] | –
CC(=O)Nc1ccc(CNc2nc3cc(-c4ccccc4C)sc3c(=O)n2C)cc1 | inconclusive: 20.6 µM [cytotoxic, single point] | –
O=C(NC1CCCCC1)c1ccccc1NC(=O)C1CC1 | active: 16.4 µM | –
NS(=O)(=O)c1ccc(Sc2ccc3ccccc3c2)nc1 | – | inactive: 3.29%
CCOC(=O)N1CCN(C(=O)COC(=O)c2ccc(N(C)C)cc2)CC1 | active: 20.6 µM | –
Cc1ccc(-n2c(-c3ccccc3)n[nH]c2=S)cc1 | – | inactive: 8.6%
COc1ccc(NC(=O)COc2ccccc2Cc2ccccc2)cc1S(N)(=O)=O | active: 10.3 µM | –
CCn1c(C)nc2cc(C(=O)OC(C(F)(F)C(F)F)C(F)(F)C(F)F)ccc21 | inconclusive: 16.4 µM [cytotoxic, single point] | –
O=C(COC(=O)Cc1ccsc1)NCc1ccc(Cl)cc1 | inconclusive: 29.1 µM [cytotoxic, single point] | –
N#CC1=C(N)C(C#N)(C#N)C(c2cccnc2)C2CC(c3ccccc3)CC=C12 (stereo not given) | inconclusive: 20.6 µM [cytotoxic, single point] | –
CC(=O)NC(=S)Nc1cc(C(=O)O)ccc1Cl | – | inactive: 2.99%
Cc1ccc(N(CC(=O)N2CCN(c3cccc(C)c3C)CC2)S(=O)(=O)c2c(C)nn(C)c2C)cc1 | – | inactive: -8.58%

Source: PubChem BioAssay AID1347076 (National Center for Advancing Translational Sciences (NCATS), 2019)
